According to the supplement of paper PMC10849652:
The other results are listed elsewhere or left out.

By UniProt entry, the sequences of proteins in these tests, tags left out. Where a name states a change or a piece, a line headed by the entry shows the natural chain unless it says otherwise.
UniProt O94763, whole entry, looked up: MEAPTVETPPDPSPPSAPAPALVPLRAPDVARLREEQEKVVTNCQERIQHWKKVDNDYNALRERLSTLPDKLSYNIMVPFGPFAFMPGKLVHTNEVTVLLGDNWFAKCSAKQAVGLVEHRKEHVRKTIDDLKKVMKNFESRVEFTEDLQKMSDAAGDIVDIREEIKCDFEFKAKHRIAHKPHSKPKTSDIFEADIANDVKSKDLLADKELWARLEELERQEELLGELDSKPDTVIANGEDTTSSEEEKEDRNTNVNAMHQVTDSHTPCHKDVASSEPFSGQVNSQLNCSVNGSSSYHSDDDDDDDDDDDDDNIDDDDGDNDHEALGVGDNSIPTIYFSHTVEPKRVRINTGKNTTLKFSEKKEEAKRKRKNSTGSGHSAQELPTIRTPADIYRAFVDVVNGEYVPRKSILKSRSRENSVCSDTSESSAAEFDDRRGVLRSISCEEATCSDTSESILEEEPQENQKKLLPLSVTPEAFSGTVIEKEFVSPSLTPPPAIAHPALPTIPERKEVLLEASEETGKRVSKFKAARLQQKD
UniProt Q8TCY9: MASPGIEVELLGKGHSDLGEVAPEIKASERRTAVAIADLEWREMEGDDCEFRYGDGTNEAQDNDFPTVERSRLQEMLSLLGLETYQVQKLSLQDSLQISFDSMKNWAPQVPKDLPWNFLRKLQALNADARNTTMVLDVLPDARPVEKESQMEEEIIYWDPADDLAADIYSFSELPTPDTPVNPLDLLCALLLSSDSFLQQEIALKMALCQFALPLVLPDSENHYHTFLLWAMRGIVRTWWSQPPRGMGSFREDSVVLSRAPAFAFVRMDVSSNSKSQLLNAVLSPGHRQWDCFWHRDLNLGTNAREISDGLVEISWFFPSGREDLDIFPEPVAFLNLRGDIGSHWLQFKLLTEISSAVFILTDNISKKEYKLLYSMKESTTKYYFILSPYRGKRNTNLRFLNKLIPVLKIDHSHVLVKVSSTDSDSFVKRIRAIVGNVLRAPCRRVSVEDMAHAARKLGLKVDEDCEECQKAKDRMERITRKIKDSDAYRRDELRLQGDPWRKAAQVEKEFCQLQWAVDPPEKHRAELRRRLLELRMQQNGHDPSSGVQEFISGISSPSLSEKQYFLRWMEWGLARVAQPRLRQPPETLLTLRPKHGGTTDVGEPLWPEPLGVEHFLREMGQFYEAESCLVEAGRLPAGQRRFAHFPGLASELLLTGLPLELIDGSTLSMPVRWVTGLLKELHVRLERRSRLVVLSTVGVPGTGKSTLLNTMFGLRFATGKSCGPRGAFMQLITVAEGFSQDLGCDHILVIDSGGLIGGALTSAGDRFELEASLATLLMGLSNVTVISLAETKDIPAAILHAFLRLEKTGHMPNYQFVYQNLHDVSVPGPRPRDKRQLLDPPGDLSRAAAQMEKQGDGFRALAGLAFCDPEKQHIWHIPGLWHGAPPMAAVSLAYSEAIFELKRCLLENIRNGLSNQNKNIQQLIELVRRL
UniProt P22415: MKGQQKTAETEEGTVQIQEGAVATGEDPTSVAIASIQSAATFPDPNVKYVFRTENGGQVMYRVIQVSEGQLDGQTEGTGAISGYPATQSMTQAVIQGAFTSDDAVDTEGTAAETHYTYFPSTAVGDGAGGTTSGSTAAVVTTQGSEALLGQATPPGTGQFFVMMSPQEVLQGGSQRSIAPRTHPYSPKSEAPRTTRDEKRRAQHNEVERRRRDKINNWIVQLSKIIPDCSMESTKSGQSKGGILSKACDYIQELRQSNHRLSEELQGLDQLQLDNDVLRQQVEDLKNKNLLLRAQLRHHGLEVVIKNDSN
UniProt Q68DE3: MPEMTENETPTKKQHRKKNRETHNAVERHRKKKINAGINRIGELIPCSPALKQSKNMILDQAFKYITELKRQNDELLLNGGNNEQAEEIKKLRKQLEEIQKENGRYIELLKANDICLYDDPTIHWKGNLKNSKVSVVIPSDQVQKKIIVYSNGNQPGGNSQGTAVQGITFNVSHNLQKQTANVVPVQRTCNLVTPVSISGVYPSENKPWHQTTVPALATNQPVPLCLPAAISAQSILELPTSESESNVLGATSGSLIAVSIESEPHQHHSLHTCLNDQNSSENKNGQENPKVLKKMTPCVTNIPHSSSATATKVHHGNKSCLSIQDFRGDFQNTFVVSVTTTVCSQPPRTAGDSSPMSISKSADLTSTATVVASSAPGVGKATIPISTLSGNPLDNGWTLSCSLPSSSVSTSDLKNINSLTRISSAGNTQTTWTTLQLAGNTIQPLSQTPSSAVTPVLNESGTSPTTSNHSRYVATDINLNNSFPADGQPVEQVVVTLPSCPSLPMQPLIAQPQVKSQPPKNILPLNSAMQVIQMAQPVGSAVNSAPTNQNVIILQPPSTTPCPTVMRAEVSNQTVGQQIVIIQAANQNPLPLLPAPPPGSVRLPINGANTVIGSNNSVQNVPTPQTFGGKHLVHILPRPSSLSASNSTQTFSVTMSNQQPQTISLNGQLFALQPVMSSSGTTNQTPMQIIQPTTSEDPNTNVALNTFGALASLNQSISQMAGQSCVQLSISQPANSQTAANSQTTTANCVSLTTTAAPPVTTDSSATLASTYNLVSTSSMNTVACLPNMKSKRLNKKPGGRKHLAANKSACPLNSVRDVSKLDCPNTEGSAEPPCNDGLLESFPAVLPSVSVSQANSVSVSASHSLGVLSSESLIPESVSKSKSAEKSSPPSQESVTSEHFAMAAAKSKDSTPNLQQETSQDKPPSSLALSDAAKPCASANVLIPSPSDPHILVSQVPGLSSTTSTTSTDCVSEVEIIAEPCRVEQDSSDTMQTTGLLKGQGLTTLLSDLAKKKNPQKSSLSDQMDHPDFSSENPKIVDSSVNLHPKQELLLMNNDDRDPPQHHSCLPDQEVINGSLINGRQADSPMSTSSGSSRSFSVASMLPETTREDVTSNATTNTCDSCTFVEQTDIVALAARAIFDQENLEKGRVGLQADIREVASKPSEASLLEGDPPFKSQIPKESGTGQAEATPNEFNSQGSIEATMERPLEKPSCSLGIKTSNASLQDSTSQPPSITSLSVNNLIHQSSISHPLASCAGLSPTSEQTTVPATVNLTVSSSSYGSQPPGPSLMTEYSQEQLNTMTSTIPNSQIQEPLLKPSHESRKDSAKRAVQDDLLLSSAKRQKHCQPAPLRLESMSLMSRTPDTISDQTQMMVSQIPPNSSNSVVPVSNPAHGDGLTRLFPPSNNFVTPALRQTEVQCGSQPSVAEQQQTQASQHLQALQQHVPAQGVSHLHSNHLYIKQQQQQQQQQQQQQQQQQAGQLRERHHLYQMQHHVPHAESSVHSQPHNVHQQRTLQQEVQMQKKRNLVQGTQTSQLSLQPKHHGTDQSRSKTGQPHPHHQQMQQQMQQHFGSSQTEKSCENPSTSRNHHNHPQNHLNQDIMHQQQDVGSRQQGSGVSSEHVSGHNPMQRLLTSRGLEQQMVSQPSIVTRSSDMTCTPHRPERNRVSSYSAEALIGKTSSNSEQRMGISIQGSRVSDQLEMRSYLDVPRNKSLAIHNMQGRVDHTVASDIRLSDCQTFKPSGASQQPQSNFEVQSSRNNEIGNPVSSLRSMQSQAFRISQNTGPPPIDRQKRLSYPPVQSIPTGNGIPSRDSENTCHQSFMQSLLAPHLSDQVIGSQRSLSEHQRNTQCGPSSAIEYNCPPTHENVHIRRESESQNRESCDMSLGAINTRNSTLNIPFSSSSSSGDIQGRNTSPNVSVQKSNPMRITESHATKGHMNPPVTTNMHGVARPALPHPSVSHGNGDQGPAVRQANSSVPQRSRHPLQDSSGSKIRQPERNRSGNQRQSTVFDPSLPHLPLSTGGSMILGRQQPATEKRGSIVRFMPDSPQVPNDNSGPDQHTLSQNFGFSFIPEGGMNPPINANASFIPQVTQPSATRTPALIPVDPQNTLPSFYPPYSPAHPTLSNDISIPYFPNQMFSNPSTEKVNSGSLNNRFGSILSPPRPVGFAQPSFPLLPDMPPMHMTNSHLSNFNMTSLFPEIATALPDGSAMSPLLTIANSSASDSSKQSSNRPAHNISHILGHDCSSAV
UniProt Q5TAP6: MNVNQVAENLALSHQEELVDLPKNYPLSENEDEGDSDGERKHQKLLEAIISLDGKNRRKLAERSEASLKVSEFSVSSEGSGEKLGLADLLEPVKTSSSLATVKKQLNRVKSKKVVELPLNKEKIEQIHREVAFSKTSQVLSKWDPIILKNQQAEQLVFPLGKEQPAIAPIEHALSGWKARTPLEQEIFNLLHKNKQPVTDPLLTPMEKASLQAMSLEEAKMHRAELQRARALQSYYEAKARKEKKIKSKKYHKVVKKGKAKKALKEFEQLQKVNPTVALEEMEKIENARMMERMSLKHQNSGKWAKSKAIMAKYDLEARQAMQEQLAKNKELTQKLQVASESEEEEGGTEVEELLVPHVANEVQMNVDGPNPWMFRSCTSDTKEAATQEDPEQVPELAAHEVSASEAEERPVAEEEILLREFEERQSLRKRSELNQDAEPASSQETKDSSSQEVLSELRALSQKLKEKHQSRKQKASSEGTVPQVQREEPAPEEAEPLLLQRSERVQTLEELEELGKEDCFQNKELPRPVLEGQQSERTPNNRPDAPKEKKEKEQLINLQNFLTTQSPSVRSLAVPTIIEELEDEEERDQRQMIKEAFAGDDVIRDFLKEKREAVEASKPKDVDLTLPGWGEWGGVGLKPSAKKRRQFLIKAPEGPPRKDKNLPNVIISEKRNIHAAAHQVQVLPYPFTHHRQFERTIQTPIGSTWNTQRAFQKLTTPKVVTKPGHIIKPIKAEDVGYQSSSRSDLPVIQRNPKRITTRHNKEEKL

Legend:
Experiment in all cases: log2 fold change, soluble protein after heating vs DMSO (PISA); higher = thermal stabilisation; K562 cells, 10 uM, 30 min; active = over 0.2 and 3.5 SD of the protein, either way, in both replicates (recomputed)
[1] = compound: Cc1ccc(NC(=O)c2ccc(CN3CC[C@H](N(C)C)C3)c(C(F)(F)F)c2)cc1Nc1nccc(-c2cncnc2)n1 [bafetinib]
Summary of the method: (§1)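 Soluble protein was defined as the supernatant after 21,000xg for 90 min. It came from K562 cells at 2×10^6 cells/mL given 10 μM compound for 30 min, heated in aliquots for 3 min across 48°C-58°C, pooled, and extracted in PBS with 0.5% NP-40 at 4°C, and was quantified by TMTpro 16plex LC-MS/MS with equalised channel sums. Thermal stability against control samples, from duplicates, is reported as log2 fold change.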

[2] = compound: Cc1cccc(CC(=O)N2CCc3c2ccc(-c2cn(C)c4ncnc(N)c24)c3F)n1
Summary of the method: as §1

[3] = compound: Cc1cn(-c2cc(NC(=O)c3ccc(C)c(Nc4nccc(-c5cccnc5)n4)c3)cc(C(F)(F)F)c2)cn1 [nilotinib]
Summary of the method: as §1

[4] = compound: Cc1nc(Nc2n[nH]c3c2CN(C(=O)N[C@H](CN(C)C)c2ccccc2)C3(C)C)c2sccc2n1
Summary of the method: as §1

[5] = compound: Cc1nc(Nc2ncc(C(=O)Nc3c(C)cccc3Cl)s2)cc(N2CCN(CCO)CC2)n1 [dasatinib]
Summary of the method: as §1

[6] = compound: Cc1ncc(-c2ccnc(Nc3ccc(S(C)(=O)=O)cc3)n2)n1C(C)C
Summary of the method: as §1

[7] = compound: Cn1cc(-c2ccc3c(c2)CCN3C(=O)Cc2cccc(C(F)(F)F)c2)c2c(N)ncnc21
Summary of the method: as §1

[8] = compound: Cn1cc(-c2ccc3nnc(C(F)(F)c4ccc5ncccc5c4)n3n2)cn1
Summary of the method: as §1

[9] = compound: NC(=O)Nc1cc(-c2cccc(F)c2)sc1C(=O)N[C@H]1CCCNC1
Summary of the method: as §1

[10] = compound: NC(=O)c1cnc(N[C@@H]2CCCC[C@@H]2N)nc1Nc1cccc(-n2nccn2)c1
Summary of the method: as §1

[11] = compound: NCC(=O)Nc1ccc(-n2nc(C(F)(F)F)cc2-c2ccc3c(ccc4ccccc43)c2)cc1
Summary of the method: as §1

[12] = compound: Nc1ccccc1NC(=O)c1ccc(CNC(=O)OCc2cccnc2)cc1 [entinostat]
Summary of the method: as §1

[13] = compound: O=C(CCCCCCC(=O)Nc1ccccc1)NO [vorinostat]
Summary of the method: as §1

[14] = compound: O=C(CCCCCCNC(=O)c1cnc(N(c2ccccc2)c2ccccc2Cl)nc1)NO [citarinostat]
Summary of the method: as §1

[15] = compound: O=C1NC(=O)C(c2cnc3ccccn23)=C1c1cn2c3c(cc(F)cc13)CN(C(=O)N1CCCCC1)CC2
Summary of the method: as §1

[16] = compound: c1cc(OCCN2CCCCC2)cc(-c2n[nH]c3ccc(-c4nnc[nH]4)cc23)c1
Summary of the method: as §1

[17] = compound: Cn1cncc1[C@@](N)(c1ccc(Cl)cc1)c1ccc2c(c1)c(-c1cccc(Cl)c1)cc(=O)n2C [tipifarnib]
Summary of the method: as §1

[18] = compound: FC(F)(F)c1ccc(/C=C/c2nc(COc3ccc(CCCCn4ccnn4)cc3)co2)cc1 [mubritinib]
Summary of the method: as §1

[19] = compound: NC1(c2ccc(-c3nc4ccn5c(=O)[nH]nc5c4cc3-c3ccccc3)cc2)CCC1
Summary of the method: as §1

[20] = compound: O=C(O)c1ccc2c(c1)nc(Nc1cccc(Cl)c1)c1ccncc12 [silmitasertib]
Summary of the method: as §1

Measured: log2 fold change

URI1 isoform 4 (UniProt O94763)
inactive: [1] 0.137 | [2] -0.091 | [3] -0.142 | [4] -0.187 | [5] -0.06 | [6] 0.125 | [7] 0.37 | [8] 0.242 | [9] 0.08 | [10] 0 | [11] 0.045 | [12] -0.016 | [13] -0.059 | [14] 0.033 | [15] 0.393 | [16] -0.168

URGCP (UniProt Q8TCY9)
inactive: [1] 0.09 | [2] -0.007 | [3] 0.096 | [4] -0.435 | [5] -0.04 | [6] 0.254 | [7] 0.026 | [8] -0.013 | [17] 0.054 | [9] 0.01 | [10] -0.024 | [11] 0.014 | [12] -0.115 | [13] 0.08 | [15] -0.104

USF1 (UniProt P22415)
inactive: [1] -0.002 | [2] 0.094 | [3] -0.003 | [4] -0.001 | [6] -0.007 | [8] 0.003 | [17] 0.02 | [18] -0.024 | [9] -0.085 | [10] -0.06 | [19] -0.114 | [11] 0.101 | [12] 0.088 | [13] 0.054 | [20] 0.121 | [15] -0.01

USF3 (UniProt Q68DE3)
inactive: [1] 0.055 | [8] -0.096 | [17] 0.28 | [18] 0.155 | [9] -0.193 | [19] -0.227 | [11] -0.243 | [12] -0.068 | [14] -0.242 | [20] 0.186 | [15] -0.239 | [16] -0.28

UTP14C (UniProt Q5TAP6)
inactive: [9] 0.059 | [12] -0.074 | [15] 0.003
